In patent publication US20240099298A1, “BIOINSECTICIDAL COMPOSITIONS CONTAINING MONOTERPENES AND METHODS OF USE THEREOF” (priority 2017, published 2024):
Some results were stated once for a whole list of compounds, not compound by compound.

Assays:
Aedes aegypti (mosquito) = assay: Median knockdown concentration (KC50) test, mosquito; assay type: in vivo
Text: (§1) All treatments and controls were in triplicate.
(§2) Knockdown Activity of Monoterpenes.

[1] = system: Musca domestica (housefly); assay: Median knockdown concentration (KC50) test, housefly; assay type: in vivo; conditions: houseflies
Text: as §1, §2

| Compound | time within which the insects responded (Aedes aegypti (mosquito)) [min] | time within which the insects responded [1] [min] |
| --- | --- | --- |
| C/C=C/c1ccc(OC)cc1 [trans-Anethole] | ≤ 10 | – |
| C=CC(C)(O)CCC=C(C)C (centres unmarked) [Linalool, 3,7-dimethylocta-1,6-dien-3-o1] | – | ≤ 20 |
